Source: PubChem BioAssay AID2685 (National Center for Advancing Translational Sciences (NCATS), 2010)
This is one part of the list. Further columns of the screen follow, without active or inactive calls. Compounds called inactive in the main read-out are mostly missing here. Potencies come from curve fits of mixed quality, noted in brackets.

Experiment: qHTS Assay for Lipid Storage Modulators in Drosophila S3 Cells;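 on cell number change: cells counted by Cell Tracker Red CMTPX staining in the red channel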
Settings: BODIPY lipid droplet fluorescence, 18-24 h; for cell number change: measured here: cell count max response, cells fed with added oleic acid
Method in brief: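 Laser-scanning cytometry quantifies lipid droplet accumulation (500–530 nm total intensity; droplet/cell object ratio) in oleic acid-fed (400 uM added) Drosophila S3 cells treated with a concentration series. 20 uM Triacsin C defined 100% inhibition.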

[1] = measured here: lipid fluorescence (Fed channel) AC50, cells fed with added oleic acid
[2] = measured here: cell number channel AC50, cells fed with added oleic acid

Row | SMILES | cell number change [%] | AC50 [1] | AC50 [2]
1 | CC(C)(C)c1ccc2c(c1)OCC(C(=O)O)O2 (stereo unspecified) | -23.2 | 29.1 µM [falling, single point] | –
2 | O=C(NCCc1ccccc1)c1nc(-c2cccs2)no1 | – | 6.51 µM [falling, single point] | –
3 | Cc1nc2cc(N3CCCCC3)c(NC(=O)c3cccnc3)cc2c(=O)n1Cc1ccccc1 | -23.9 | 0.651 µM [rising, partial curve] | –
4 | O=C(O)C/C(=C\c1ccc(Cl)cc1)c1nc2ccccc2o1 | -27.8 | 6.51 µM [falling, single point] | –
5 | C/C(=N\NS(=O)(=O)c1ccc(C)c([N+](=O)[O-])c1)c1cccs1 | -4.6 | – | –
6 | CC(C)(C)NS(=O)(=O)c1ccc2[nH]c3c(c2c1)CCCCC3 | -67.6 | 18.4 µM [falling, single point] | –
7 | COC(=O)c1[nH]c2cccc(OC)c2c1NC(=O)CCN1CCSCC1 | 19.8 | 6.51 µM [falling, single point] | –
8 | COc1cc2ccccc2cc1C(=O)N(CCN(C)C)c1nc2ccc(Br)cc2s1 | 29.1 | 20.6 µM [rising, partial curve, poor fit] | –
9 | O=C(NCCCN1CCN(c2ccc(F)cc2)CC1)C1CCCN(c2ncnc3c2nc2n3CCCCC2)C1 (stereo unspecified) | 21.4 | 0.231 µM [rising, full curve] | –
10 | COCCNC(=O)CSc1nnc(-c2ccccc2F)n1Cc1ccccc1 | 114 | 1.64 µM [falling, partial curve] | –
11 | O=C(Nc1c2c(nn1-c1cccc(Cl)c1)CS(=O)(=O)C2)C1CC1 | 16.3 | – | –
12 | Cc1c(C)c2cc(Cl)c(OCC(=O)NC3CC(C)(C)NC(C)(C)C3)cc2oc1=O | 36.3 | – | 11.6 µM [rising, single point]
13 | Cc1nc2c(ccc3nc(NC(=O)Cc4ccccc4)sc32)s1 | -31.3 | 2.06 µM [falling, full curve, poor fit] | 29.1 µM [falling, single point]
14 | CCN(CC)C(=O)C1=C(C)Nc2ncnn2C1c1cccnc1 (stereo unspecified) | 11.1 | 0.00461 µM [falling, full curve, poor fit] | –
15 | COc1cc(NC(=O)c2ccco2)c(C(=O)OCC(=O)Nc2ncc(Cl)cc2Cl)cc1OC | 16.5 | 0.731 µM [rising, single point] | –
16 | Cc1ccccc1NC(=O)C1c2cccc[n+]2CC(=O)N1c1c(C)cccc1C (stereo unspecified) | 2.65 | – | 2.06 µM [rising, partial curve, poor fit]
17 | C=CCSc1nnc(CNC(=O)c2ccccc2C)n1C(C)C | -4.21 | 0.651 µM [falling, single point] | –
18 | COC(=O)CN(c1cccc(C)c1)S(=O)(=O)c1ccccc1 | 13.6 | – | 0.206 µM [rising, full curve, poor fit]
19 | Cc1ccc2nc(NC(=O)c3ccccn3)sc2c1 | 5.78 | 0.13 µM [rising, full curve, poor fit] | 0.13 µM [rising, full curve, poor fit]
20 | O=C(Nc1c(Cl)cc(Cl)cc1C(=O)NCCN1CCOCC1)c1cccc([N+](=O)[O-])c1 | – | 0.116 µM [rising, full curve, poor fit] | 0.00461 µM [rising, full curve, poor fit]

Row | SMILES | cell number change [%] | AC50 [1] | AC50 [2]
21 | Cc1cc(C(=O)N/N=C/c2cc(N=Nc3ccccc3)ccc2O)n[nH]1 | -27.3 | 29.1 µM [falling, single point] | –
22 | CCN(CC)c1ccc(CNc2nc3ccccc3n2C)cc1 | – | 3.26 µM [rising, single point] | –
23 | CCOc1ccc(CCNC(=O)c2cnccn2)cc1OCC | 3.75 | 2.91 µM [falling, partial curve] | –
24 | O=C(C1CCN(S(=O)(=O)c2cccc3cccnc23)CC1)N1CCCC1 | 10.6 | – | –
25 | CC(=O)Nc1ccc(NC(=O)Nc2cccc3ccccc23)cc1 | -3.81 | 29.1 µM [rising, single point] | –
26 | CN(C)CCN(Cc1ccco1)S(=O)(=O)c1ccc(-c2ccc(=O)[nH]n2)s1 | -5.5 | – | –
27 | Cc1cc(F)ccc1NC(=S)NCCc1ccccc1 | -29.2 | – | 6.51 µM [rising, single point]
28 | CCSc1ncc(C#N)c(=O)[nH]1 | -30.8 | 0.92 µM [falling, full curve, poor fit] | 0.82 µM [falling, full curve]
29 | CCCNC(=O)c1cccc(COCC(F)(F)C(F)F)c1 | – | 0.082 µM [falling, full curve, poor fit] | –
30 | Cc1sc2ncn(CC(=O)NCCN3CCOCC3)c(=O)c2c1S(=O)(=O)N1CCC(C)CC1 | – | – | 2.91 µM [falling, single point]
31 | Cc1cc(N2CCOCC2)n2cc(-c3ccccc3)nc2n1 | 2.48 | – | –
32 | CC1CCCC(NC(=O)CN2C(=O)c3cccnc3Oc3ccc(Cl)cc32)C1C (stereo unspecified) | -7.46 | 29.1 µM [falling, single point] | –
33 | COc1ccc(NC(=O)Cn2c([N+](=O)[O-])cnc2C)cc1Cl | 25.2 | – | 0.326 µM [rising, full curve, poor fit]
34 | CCC(=O)NC1=C(Cl)C(=O)C(NC(=O)CC)=C(Cl)C1=O | -11.5 | 3.26 µM [falling, full curve] | –
35 | N#Cc1c(N)oc(-c2ccccc2)c1-c1ccccc1 | -7.53 | 2.31 µM [falling, full curve, poor fit] | –
36 | CCCC1NC(=S)N(C2CCCCC2)C1=O (stereo unspecified) | 33.7 | – | 9.2 µM [rising, partial curve]
37 | CCC(c1nnnn1C1CCCC1)N1CCC(C(N)=O)CC1 (stereo unspecified) | -13.7 | 3.26 µM [falling, single point] | –
38 | CCC(C)(C(=O)NC1CCCCC1)N(Cc1ccco1)C(=O)c1cnccn1 (stereo unspecified) | – | 6.51 µM [rising, partial curve] | 6.51 µM [rising, partial curve]
39 | COc1ccc(NC(=O)c2cccc(N3C(=O)C4CC=C(C)CC4C3=O)c2)c(OC)c1 (stereo unspecified) | 3.85 | 29.1 µM [rising, single point] | –
40 | CCCOc1ccccc1OCC(=O)Nc1ccc(S(=O)(=O)N2CCCCC2)cc1 | -54 | 20.6 µM [falling, partial curve] | 20.6 µM [falling, partial curve]

Row | SMILES | cell number change [%] | AC50 [1] | AC50 [2]
41 | O=C(NCCc1ccccc1C(F)(F)F)C1CCC(=O)N(CCCN2CCCC2=O)C1 (stereo unspecified) | 0.824 | 18.4 µM [falling, single point] | –
42 | CC(C)CC(=O)Nc1ccc(C(=O)CN2CCN(c3ccc(O)cc3)CC2)cc1 | – | 4.11 µM [falling, full curve] | –
43 | Cc1c(C(=O)C(=O)NCCc2ccc(S(N)(=O)=O)cc2)c2ccccc2n1C | -13.4 | 7.31 µM [rising, partial curve] | –
44 | CCCCn1c(N)c(N(CC(C)C)C(=O)C2CCN(c3ncnc4sc(C)c(C)c34)CC2)c(=O)[nH]c1=O | 93.5 | – | 13 µM [rising, partial curve]
45 | CCOc1ccc(C(=O)CSc2nnc(N)s2)cc1 | 48 | 6.51 µM [falling, single point] | 32.6 µM [rising, partial curve, poor fit]
46 | CCCCN(C(=O)c1c(CC)noc1C)c1c(N)n(CCCC)c(=O)[nH]c1=O | 4.36 | 0.103 µM [falling, full curve, poor fit] | –
47 | CCOC(=O)c1cc[nH]c1CC(=O)NC | -51.9 | 0.731 µM [falling, full curve] | 0.731 µM [falling, full curve]
48 | Cc1ccc(N2C(=O)Cc3ccccc3C2=O)cc1 | 27.4 | 0.461 µM [rising, single point] | –
49 | CN(C)S(=O)(=O)c1cccc(NC(=O)CNCC2CCCCC2)c1 | 21.4 | – | –
50 | COc1ccc(-n2c(C)cc(/C=N/Nc3nc(N4CCOCC4)nc(N4CCOCC4)n3)c2C)cc1 | 46.9 | 16.4 µM [rising, partial curve] | 13 µM [rising, partial curve]
51 | COc1ccccc1N(CC(=O)Nc1cc(C)on1)S(=O)(=O)c1cccc(C(F)(F)F)c1 | -17 | 6.51 µM [falling, single point] | –
52 | COc1ccc(-c2nc3cc(NC(=O)c4ccc5c(c4)OCO5)ccc3o2)cc1 | 7.59 | 3.66 µM [rising, full curve] | –
53 | Cc1cccc(NC(=O)CCn2nc(C)cc2C)c1 | -8.18 | 29.1 µM [rising, single point] | –
54 | CCOC(=O)Cc1csc(NC(=O)COc2c(C)cccc2C)n1 | – | 2.31 µM [falling, partial curve, poor fit] | –
55 | C=CCC(=O)NC(C)c1cnn(-c2ccccc2C)c1C (stereo unspecified) | -48.3 | 29.1 µM [falling, partial curve, poor fit] | 29.1 µM [falling, single point]
56 | CN(Cc1ccccc1)C(=O)c1cccnc1 | 36.5 | – | 32.6 µM [rising, single point]
57 | CCN1CCC(N2CCN(c3ccc(Cl)cc3)CC2)CC1 | 30.2 | – | 0.259 µM [rising, full curve]
58 | NC(=O)C1CCCN(C(=O)c2cccc(S(=O)(=O)N(Cc3ccccc3)c3ccccc3)c2)C1 (stereo unspecified) | -5.57 | 0.00461 µM [falling, full curve, poor fit] | –
59 | CCN(c1ccccc1)S(=O)(=O)c1ccc(Cl)c(NC(=O)CSc2n[nH]c(N)n2)c1 | 20.2 | – | –
60 | CCc1ccccc1-n1c(-c2ccncc2)n[nH]c1=S | -41.6 | 0.461 µM [falling, full curve, poor fit] | 3.26 µM [falling, partial curve, poor fit]

Structural class, the entries above with a nitro group on carbon
Row | SMILES | cell number change [%] | AC50 [1] | AC50 [2]
5 | C/C(=N\NS(=O)(=O)c1ccc(C)c([N+](=O)[O-])c1)c1cccs1 | -4.6 | – | –
20 | O=C(Nc1c(Cl)cc(Cl)cc1C(=O)NCCN1CCOCC1)c1cccc([N+](=O)[O-])c1 | – | 0.116 µM [rising, full curve, poor fit] | 0.00461 µM [rising, full curve, poor fit]
33 | COc1ccc(NC(=O)Cn2c([N+](=O)[O-])cnc2C)cc1Cl | 25.2 | – | 0.326 µM [rising, full curve, poor fit]
